# From the supplement of paper PMC8728848
# This is one part of the list.
# Tests used:
# Test in all cases: glycan array binding signal (z-score within array); higher = stronger binding
# Settings in all cases: glycan notation: IUPAC condensed, linker removed
# [1] = molecular target: Gal3S(b1-4)[Fuc(a1-3)]Glc
# In short: (§1)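 Columns mapping to the same glycan were averaged after glycan names were converted to IUPAC-condensed notation. The data come from 3228 arrays in the Consortium for Functional Glycomics database, limited to those with an available protein sequence. Binding is reported as a within-array Z-score averaged across arrays of one protein sequence and across linkers.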
# [2] = molecular target: Gal3S(b1-4)[Fuc(a1-3)]Glc6S
# In short: as §1
# [3] = molecular target: Gal3S4S(b1-4)GlcNAc
# In short: as §1
# [4] = molecular target: Gal3S6S(b1-4)GlcNAc
# In short: as §1
# [5] = molecular target: Gal3S6S(b1-4)GlcNAc6S
# In short: as §1
# [6] = molecular target: Gal4S(b1-4)GlcNAc
# In short: as §1
# [7] = molecular target: Gal4S6S(b1-4)GlcNAc
# In short: as §1
# [8] = molecular target: Gal6S(b1-4)Glc
# In short: as §1
# [9] = molecular target: Gal6S(b1-4)Glc6S
# In short: as §1
# [10] = molecular target: Gal6S(b1-4)GlcNAc
# In short: as §1
# [11] = molecular target: Gal6S(b1-4)GlcNAc6S
# In short: as §1
# [12] = molecular target: GalNAc(a1-3)Gal
# In short: as §1
# [13] = molecular target: GalNAc(a1-3)GalNAc
# In short: as §1
# [14] = molecular target: GalNAc(a1-3)GalNAc(a1-3)Gal(a1-4)Gal(b1-4)GlcNAc
# In short: as §1
# [15] = molecular target: GalNAc(b1-3)Gal
# In short: as §1
# [16] = molecular target: GalNAc(b1-3)Gal(a1-4)Gal(b1-4)GlcNAc
# In short: as §1
# [17] = molecular target: GalNAc(b1-3)Gal(a1-4)Gal(b1-4)GlcNAc(b1-3)Gal(b1-4)Glc
# In short: as §1
# [18] = molecular target: GalNAc(b1-3)Gal(a1-6)Gal(b1-4)Glc
# In short: as §1
# [19] = molecular target: GalNAc(b1-3)GalNAc
# In short: as §1
# [20] = molecular target: GalNAc(b1-4)GlcNAc
# In short: as §1
# [21] = molecular target: GalNAc(b1-4)GlcNAc(b1-2)Man(a1-3)[GalNAc(b1-4)GlcNAc(b1-2)Man(a1-6)]Man(b1-4)GlcNAc(b1-4)GlcNAc
# In short: as §1
# [22] = molecular target: Glc(a1-4)Glc
# In short: as §1
# [23] = molecular target: Glc(a1-6)Glc(a1-6)Glc
# In short: as §1
# [24] = molecular target: Glc(b1-4)Glc
# In short: as §1
# [25] = molecular target: Glc(b1-6)Glc
# In short: as §1
# [26] = molecular target: GlcA(b1-3)Gal
# In short: as §1
# [27] = molecular target: GlcA(b1-3)GlcNAc
# In short: as §1
# [28] = molecular target: GlcA(b1-6)Gal
# In short: as §1
# [29] = molecular target: GlcNAc(a1-3)Gal(b1-4)GlcNAc
# In short: as §1
# [30] = molecular target: GlcNAc(a1-4)Gal(b1-3)GlcNAc
# In short: as §1
# [31] = molecular target: GlcNAc(a1-4)Gal(b1-4)GalNAc
# In short: as §1
# [32] = molecular target: GlcNAc(a1-4)Gal(b1-4)GlcNAc
# In short: as §1
# [33] = molecular target: GlcNAc(a1-4)Gal(b1-4)GlcNAc(b1-3)Gal(b1-4)Glc
# In short: as §1
# [34] = molecular target: GlcNAc(a1-4)Gal(b1-4)GlcNAc(b1-3)Gal(b1-4)GlcNAc
# In short: as §1
# [35] = molecular target: GlcNAc(a1-4)Gal(b1-4)GlcNAc(b1-3)Gal(b1-4)GlcNAc(b1-3)Gal(b1-4)GlcNAc
# In short: as §1
# [36] = molecular target: GlcNAc(a1-4)Gal(b1-4)GlcNAc(b1-3)Gal(b1-4)[Fuc(a1-3)]GlcNAc(b1-3)Gal(b1-4)[Fuc(a1-3)]GlcNAc
# In short: as §1
# [37] = molecular target: GlcNAc(a1-6)Gal(b1-4)GlcNAc
# In short: as §1
binder,measurement,setting,value
"SAG1 (Toxoplasma gondii), P13664 (protein) MSVSLHHFIISSGFLTSMFPKAVRRAVTAGVFAAPTLMSFLRCGVMASDPPLVANQVVTCPDKKSTAAVILTPTENHFTLKCPKTALTEPPTLAYSPNRQICPAGTTSSCTSKAVTLSSLIPEAEDSWWTGDSASLDTAGIKLTVPIEKFPVTTQTFVVGCIKGDDAQSCMVTVTVQARASSVVNNVARCSYGADSTLGPVKLSAEGPTTMTLVCGKDGVKVPQDNNQYCSGTTLTGCNEKSFKDILPKLTENPWQGNASSDKGATLTIKKEAFPAESKSVIIGCTGGSPEKHHCTVKLEFAGAAGSAKSAAGTASHVSIFAMVIGLIGSIAACVA",glycan array binding signal (z-score),[1],0.835
same,glycan array binding signal (z-score),[2],0.37
same,glycan array binding signal (z-score),[3],0.268
same,glycan array binding signal (z-score),[4],0.835
same,glycan array binding signal (z-score),[5],1.21
same,glycan array binding signal (z-score),[6],0.045
same,glycan array binding signal (z-score),[7],-0.448
same,glycan array binding signal (z-score),[8],-0.579
same,glycan array binding signal (z-score),[9],-0.159
same,glycan array binding signal (z-score),[10],0.798
same,glycan array binding signal (z-score),[11],0.255
same,glycan array binding signal (z-score),[12],-0.761
same,glycan array binding signal (z-score),[13],1.45
same,glycan array binding signal (z-score),[14],-0.145
same,glycan array binding signal (z-score),[15],0.07
same,glycan array binding signal (z-score),[16],0.443
same,glycan array binding signal (z-score),[17],0.64
same,glycan array binding signal (z-score),[18],-0.283
same,glycan array binding signal (z-score),[19],-0.419
same,glycan array binding signal (z-score),[20],0.569
same,glycan array binding signal (z-score),[21],0.967
same,glycan array binding signal (z-score),[22],-0.018
same,glycan array binding signal (z-score),[23],-1.44
same,glycan array binding signal (z-score),[24],-0.71
same,glycan array binding signal (z-score),[25],-0.776
same,glycan array binding signal (z-score),[26],-0.759
same,glycan array binding signal (z-score),[27],-1.04
same,glycan array binding signal (z-score),[28],0.213
same,glycan array binding signal (z-score),[29],0.201
same,glycan array binding signal (z-score),[30],-0.606
same,glycan array binding signal (z-score),[31],-0.225
same,glycan array binding signal (z-score),[32],0.129
same,glycan array binding signal (z-score),[33],0.578
same,glycan array binding signal (z-score),[34],0.015
same,glycan array binding signal (z-score),[35],0.265
same,glycan array binding signal (z-score),[36],2.24
same,glycan array binding signal (z-score),[37],0.575

# Two entries from above, bar-delimited.
binder | measurement | setting | value
SAG1 (Toxoplasma gondii), P13664 (protein) MSVSLHHFIISSGFLTSMFPKAVRRAVTAGVFAAPTLMSFLRCGVMASDPPLVANQVVTCPDKKSTAAVILTPTENHFTLKCPKTALTEPPTLAYSPNRQICPAGTTSSCTSKAVTLSSLIPEAEDSWWTGDSASLDTAGIKLTVPIEKFPVTTQTFVVGCIKGDDAQSCMVTVTVQARASSVVNNVARCSYGADSTLGPVKLSAEGPTTMTLVCGKDGVKVPQDNNQYCSGTTLTGCNEKSFKDILPKLTENPWQGNASSDKGATLTIKKEAFPAESKSVIIGCTGGSPEKHHCTVKLEFAGAAGSAKSAAGTASHVSIFAMVIGLIGSIAACVA | glycan array binding signal (z-score) | [26] | -0.759
same | glycan array binding signal (z-score) | [27] | -1.04
